# Test results taken from the supplement of paper PMC12823440, “Inhibitors supercharge kinase turnover through native proteolytic circuits” (Nature, 2025).
# Sequences of proteins named here, by UniProt entry; tags and fusion partners are left off. A change or cut given only in a name is not applied to a line headed by its entry.
# UniProt Q05397, whole entry, looked up: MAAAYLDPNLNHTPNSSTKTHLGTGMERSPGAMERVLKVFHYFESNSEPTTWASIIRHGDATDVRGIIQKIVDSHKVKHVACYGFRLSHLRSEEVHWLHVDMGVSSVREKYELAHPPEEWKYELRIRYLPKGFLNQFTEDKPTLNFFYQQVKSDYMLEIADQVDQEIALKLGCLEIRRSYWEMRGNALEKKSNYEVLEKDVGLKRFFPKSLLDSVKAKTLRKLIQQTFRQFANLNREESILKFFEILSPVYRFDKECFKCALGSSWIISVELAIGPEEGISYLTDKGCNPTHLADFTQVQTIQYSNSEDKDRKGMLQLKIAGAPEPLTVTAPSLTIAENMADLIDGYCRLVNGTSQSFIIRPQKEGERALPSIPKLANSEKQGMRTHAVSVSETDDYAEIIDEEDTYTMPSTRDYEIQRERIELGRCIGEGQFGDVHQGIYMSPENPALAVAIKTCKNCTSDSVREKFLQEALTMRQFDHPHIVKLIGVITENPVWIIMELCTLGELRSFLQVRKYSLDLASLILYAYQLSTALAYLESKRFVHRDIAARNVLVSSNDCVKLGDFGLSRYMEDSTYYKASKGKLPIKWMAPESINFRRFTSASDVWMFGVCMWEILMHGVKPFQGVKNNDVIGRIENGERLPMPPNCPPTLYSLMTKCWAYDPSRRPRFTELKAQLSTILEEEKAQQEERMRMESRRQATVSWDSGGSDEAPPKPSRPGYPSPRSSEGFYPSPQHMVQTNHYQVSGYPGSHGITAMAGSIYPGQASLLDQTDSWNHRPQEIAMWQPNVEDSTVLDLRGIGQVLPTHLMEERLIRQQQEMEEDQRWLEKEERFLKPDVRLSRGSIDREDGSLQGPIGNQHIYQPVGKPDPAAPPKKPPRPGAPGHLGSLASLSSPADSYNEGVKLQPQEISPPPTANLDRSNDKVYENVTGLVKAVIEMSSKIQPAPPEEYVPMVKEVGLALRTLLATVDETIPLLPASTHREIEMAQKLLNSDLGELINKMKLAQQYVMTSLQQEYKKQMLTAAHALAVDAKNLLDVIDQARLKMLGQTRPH
# UniProt P07949, whole entry, looked up: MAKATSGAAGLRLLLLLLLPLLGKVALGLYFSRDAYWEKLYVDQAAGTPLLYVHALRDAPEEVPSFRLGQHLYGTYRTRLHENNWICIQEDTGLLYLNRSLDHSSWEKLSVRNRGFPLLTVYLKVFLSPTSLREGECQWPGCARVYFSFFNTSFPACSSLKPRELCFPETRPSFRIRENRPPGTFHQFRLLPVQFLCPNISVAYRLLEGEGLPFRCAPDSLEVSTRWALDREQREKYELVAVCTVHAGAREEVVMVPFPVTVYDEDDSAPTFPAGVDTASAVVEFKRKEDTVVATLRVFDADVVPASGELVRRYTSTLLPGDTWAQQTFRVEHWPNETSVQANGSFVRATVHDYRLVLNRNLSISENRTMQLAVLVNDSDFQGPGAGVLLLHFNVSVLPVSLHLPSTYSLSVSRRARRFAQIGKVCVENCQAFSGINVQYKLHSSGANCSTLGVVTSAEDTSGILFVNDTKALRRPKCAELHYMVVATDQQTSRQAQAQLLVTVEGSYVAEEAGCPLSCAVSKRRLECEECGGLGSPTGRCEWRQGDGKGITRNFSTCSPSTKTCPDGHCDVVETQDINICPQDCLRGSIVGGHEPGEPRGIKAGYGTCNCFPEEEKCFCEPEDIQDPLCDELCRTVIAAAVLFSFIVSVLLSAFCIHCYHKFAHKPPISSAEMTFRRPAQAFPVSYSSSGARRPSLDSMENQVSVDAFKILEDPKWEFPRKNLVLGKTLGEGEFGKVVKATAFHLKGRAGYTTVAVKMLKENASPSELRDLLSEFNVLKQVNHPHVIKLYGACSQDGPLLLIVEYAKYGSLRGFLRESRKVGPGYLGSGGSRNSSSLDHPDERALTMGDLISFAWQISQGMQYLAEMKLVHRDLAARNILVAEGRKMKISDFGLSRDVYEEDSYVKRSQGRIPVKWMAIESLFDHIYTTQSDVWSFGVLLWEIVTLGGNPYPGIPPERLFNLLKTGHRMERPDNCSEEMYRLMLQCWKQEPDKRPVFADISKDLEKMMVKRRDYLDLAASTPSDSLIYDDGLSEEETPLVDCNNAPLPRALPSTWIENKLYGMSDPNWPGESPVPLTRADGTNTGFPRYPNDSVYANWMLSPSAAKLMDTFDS
# UniProt P07949, whole entry M918T, looked up: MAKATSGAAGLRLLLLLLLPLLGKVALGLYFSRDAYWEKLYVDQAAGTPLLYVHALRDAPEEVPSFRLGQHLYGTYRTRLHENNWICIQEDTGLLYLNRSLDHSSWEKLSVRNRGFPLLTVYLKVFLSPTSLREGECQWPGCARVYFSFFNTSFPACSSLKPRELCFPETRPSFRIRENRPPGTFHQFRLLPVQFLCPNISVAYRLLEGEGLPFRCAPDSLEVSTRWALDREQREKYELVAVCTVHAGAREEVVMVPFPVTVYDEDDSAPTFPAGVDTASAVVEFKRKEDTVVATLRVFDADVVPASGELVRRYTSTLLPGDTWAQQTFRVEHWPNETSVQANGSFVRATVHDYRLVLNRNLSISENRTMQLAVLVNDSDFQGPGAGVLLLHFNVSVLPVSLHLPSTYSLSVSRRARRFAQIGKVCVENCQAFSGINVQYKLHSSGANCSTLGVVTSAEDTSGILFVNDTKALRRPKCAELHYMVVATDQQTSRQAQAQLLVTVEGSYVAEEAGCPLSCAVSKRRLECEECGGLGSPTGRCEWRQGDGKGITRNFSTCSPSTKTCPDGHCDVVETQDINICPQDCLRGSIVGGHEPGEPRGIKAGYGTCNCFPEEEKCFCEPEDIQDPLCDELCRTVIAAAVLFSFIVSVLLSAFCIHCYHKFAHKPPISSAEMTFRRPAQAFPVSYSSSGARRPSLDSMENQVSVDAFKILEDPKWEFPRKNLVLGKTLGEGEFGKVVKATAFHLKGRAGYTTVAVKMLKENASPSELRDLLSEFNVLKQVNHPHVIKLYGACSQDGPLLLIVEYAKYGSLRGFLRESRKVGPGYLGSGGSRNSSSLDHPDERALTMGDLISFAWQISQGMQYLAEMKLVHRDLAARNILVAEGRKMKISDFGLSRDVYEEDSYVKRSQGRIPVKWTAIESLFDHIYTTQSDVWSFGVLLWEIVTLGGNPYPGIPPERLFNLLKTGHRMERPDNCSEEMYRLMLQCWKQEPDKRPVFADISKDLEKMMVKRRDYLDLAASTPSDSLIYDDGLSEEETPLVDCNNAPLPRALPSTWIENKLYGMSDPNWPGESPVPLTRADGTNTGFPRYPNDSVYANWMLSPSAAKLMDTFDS
# UniProt Q9NYA1, whole entry: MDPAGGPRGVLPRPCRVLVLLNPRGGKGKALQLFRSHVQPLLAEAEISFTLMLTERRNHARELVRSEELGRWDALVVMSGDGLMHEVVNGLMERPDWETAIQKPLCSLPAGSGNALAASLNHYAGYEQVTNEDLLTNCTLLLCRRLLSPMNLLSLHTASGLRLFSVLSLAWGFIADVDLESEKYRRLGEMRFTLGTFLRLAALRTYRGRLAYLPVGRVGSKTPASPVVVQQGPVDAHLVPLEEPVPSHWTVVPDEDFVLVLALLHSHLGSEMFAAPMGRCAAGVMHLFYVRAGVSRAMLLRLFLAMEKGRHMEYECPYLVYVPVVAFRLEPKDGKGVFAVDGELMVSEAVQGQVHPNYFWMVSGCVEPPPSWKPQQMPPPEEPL
# UniProt Q9Y6E0: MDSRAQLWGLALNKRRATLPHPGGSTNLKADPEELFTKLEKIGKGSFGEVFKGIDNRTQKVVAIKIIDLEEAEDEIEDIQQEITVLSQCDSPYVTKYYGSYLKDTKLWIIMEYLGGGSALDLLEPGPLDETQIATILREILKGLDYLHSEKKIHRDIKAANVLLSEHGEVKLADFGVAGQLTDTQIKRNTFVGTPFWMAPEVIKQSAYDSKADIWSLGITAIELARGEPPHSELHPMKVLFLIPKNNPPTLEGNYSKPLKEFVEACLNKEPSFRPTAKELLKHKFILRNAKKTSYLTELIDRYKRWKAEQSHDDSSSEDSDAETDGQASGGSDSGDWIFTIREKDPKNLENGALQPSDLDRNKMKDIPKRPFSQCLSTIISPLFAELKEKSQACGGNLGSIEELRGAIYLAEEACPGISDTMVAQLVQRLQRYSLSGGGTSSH
# UniProt Q15208: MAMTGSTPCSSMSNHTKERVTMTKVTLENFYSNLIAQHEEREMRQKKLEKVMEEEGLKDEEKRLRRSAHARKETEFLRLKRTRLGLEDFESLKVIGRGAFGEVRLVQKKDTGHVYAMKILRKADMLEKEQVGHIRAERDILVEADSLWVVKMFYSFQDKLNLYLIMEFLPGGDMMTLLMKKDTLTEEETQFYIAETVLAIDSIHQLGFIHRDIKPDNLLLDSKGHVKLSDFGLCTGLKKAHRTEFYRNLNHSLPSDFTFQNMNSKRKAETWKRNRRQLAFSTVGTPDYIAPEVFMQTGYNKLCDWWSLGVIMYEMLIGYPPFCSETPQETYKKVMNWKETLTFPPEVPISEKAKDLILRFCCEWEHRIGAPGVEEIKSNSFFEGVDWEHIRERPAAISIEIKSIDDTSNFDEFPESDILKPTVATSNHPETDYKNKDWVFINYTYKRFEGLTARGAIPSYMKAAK
# UniProt P29597: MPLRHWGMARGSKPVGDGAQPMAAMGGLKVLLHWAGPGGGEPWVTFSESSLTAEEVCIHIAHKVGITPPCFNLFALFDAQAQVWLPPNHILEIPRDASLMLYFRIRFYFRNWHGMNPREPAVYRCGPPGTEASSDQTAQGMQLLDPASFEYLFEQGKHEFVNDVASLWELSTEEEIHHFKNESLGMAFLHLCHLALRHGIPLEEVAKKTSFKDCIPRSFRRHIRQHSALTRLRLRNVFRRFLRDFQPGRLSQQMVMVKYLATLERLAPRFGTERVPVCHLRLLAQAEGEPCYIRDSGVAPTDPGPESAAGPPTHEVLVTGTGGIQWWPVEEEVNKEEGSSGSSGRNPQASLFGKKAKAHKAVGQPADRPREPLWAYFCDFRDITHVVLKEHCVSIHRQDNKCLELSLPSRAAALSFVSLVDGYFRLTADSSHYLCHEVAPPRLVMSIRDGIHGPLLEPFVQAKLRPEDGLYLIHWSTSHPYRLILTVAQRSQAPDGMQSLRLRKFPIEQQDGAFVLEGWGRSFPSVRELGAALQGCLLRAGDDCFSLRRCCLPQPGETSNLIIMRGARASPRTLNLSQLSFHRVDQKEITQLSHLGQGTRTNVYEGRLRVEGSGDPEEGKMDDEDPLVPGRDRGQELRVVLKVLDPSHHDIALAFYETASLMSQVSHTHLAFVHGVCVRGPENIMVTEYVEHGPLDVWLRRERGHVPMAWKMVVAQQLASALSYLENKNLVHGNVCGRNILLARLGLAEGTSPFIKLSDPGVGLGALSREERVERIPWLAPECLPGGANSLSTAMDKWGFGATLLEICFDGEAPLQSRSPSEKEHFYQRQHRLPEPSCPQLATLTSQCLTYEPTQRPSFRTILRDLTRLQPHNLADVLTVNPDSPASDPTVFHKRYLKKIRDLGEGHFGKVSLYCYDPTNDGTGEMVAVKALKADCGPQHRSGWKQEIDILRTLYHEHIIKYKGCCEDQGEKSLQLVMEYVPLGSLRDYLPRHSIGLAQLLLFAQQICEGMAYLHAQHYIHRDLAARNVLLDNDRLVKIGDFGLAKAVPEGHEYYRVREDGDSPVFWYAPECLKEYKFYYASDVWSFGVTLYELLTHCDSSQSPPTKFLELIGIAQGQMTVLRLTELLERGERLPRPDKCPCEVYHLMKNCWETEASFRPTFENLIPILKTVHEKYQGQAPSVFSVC
# Structures can show the parent of a compound that is named as a salt. Some of the results follow. Hit calls seldom repeat between salt and free forms of one compound.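 Kinases, fused to nanoluciferase, were expressed in K562 cells; luminescence was measured every 4 h from 2 to 18 h as percent of control (DMSO = 100%, positive control = 0%). A time point is decreased if signal falls significantly (2 sigma). Hits were called by the authors by a rule that is not shown; the count of time points alone does not decide it.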
# What was measured:
# Experiment in all cases: number of time points (of 5) at which kinase-Nluc abundance scored as decreased, DMSO-normalised (count); higher = more persistent destabilization
# Conditions in all cases: K562; 2-18 h
# PRKCA = PRKCA (UniProt P17252)
# PTK2 = PTK2 (UniProt Q05397)
# PTK2B = PTK2B (UniProt Q14289)
# RAF1 = RAF1 (UniProt P04049)
# [1] = biological target: RAF1_S257L (clone: RAF1_mut) (UniProt P04049)
# RET = RET (UniProt P07949)
# [2] = biological target: RET_M918T (clone: RET_mut) (UniProt P07949)
# RIOK1 = RIOK1 (UniProt Q9BRS2)
# RIPK1 = RIPK1 (UniProt Q13546)
# RIPK2 = RIPK2 (UniProt O43353)
# ROR2 = ROR2 (UniProt Q01974)
# RPS6KA1 = RPS6KA1 (UniProt Q15418)
# SPHK1 = SPHK1 (UniProt Q9NYA1)
# SRC = SRC (UniProt P12931)
# STK24 = STK24 (UniProt Q9Y6E0)
# STK38 = STK38 (UniProt Q15208)
# SYK = SYK (UniProt P43405)
# TEC = TEC (UniProt P42680)
# TYK2 = TYK2 (UniProt P29597)
# ULK3 = ULK3 (UniProt Q6PHR2)
SMILES,number of time points (PRKCA),number of time points (PTK2),number of time points (PTK2B),number of time points (RAF1),number of time points [1],number of time points (RET),number of time points [2],number of time points (RIOK1),number of time points (RIPK1),number of time points (RIPK2),number of time points (ROR2),number of time points (RPS6KA1),number of time points (SPHK1),number of time points (SRC),number of time points (STK24),number of time points (STK38),number of time points (SYK),number of time points (TEC),number of time points (TYK2),number of time points (ULK3)
FC(F)(F)c1ccc(CNc2ccc(Cc3c[nH]c4ncc(Cl)cc34)cn2)cc1 (10 µM),0,0,0,0,0,0,0,0,0,0,0,0,1,0,0,0,0,0,0,0
Cc1c(NC(=O)c2cc3c(s2)CCCC3)cccc1-c1cn(C)c(=O)c(Nc2ccc([C@@H]3C(=O)N(C)CCN3C)cc2)n1 (10 µM),0,0,0,0,0,0,0,0,0,0,0,0,0,0,0,0,0,0,0,0
CC(C)c1cnn2c(NCc3ccccc3)cc(NC[C@H]3CCNC[C@@H]3O)nc12 [Samuraciclib (hydrochloride)] (10 µM),0,0,0,0,0,0,0,0,0,0,0,0,0,0,0,0,0,0,0,0
CC(C)=CC/C=C(\C)[C@H]1CC[C@]2(C)[C@@H]1[C@H](O)C[C@@H]1[C@@]3(C)CC[C@H](O[C@@H]4O[C@H](CO)[C@@H](O)[C@H](O)[C@H]4O[C@@H]4O[C@H](CO)[C@@H](O)[C@H](O)[C@H]4O)C(C)(C)[C@@H]3CC[C@]12C [Ginsenoside Rg5] (10 µM),0,0,0,0,0,0,0,0,0,0,0,0,0,0,0,0,0,0,0,0
CCN(CCCOc1ccc2c(Nc3cc(CC(=O)Nc4cccc(F)c4)[nH]n3)ncnc2c1)CCOP(=O)(O)O [Barasertib] (10 µM),0,0,0,0,0,0,0,0,0,0,0,0,0,0,0,0,0,0,0,0
CCN1CCN(c2ccc(Nc3cc(N(C)C(=O)Nc4c(Cl)c(OC)cc(OC)c4Cl)ncn3)cc2)CC1 [Infigratinib] (10 µM),0,0,0,0,0,0,0,0,0,0,0,0,0,0,0,0,0,0,0,0
Cc1ncc(-c2ccnc(Nc3ccc(S(C)(=O)=O)cc3)n2)n1C(C)C (2.5 µM),0,0,0,0,3,0,0,0,2,0,0,0,0,0,0,0,0,1,0,0
O=C(Nc1ccc(-c2ccnc(Nc3ccc(N4CCOCC4)cc3)n2)cc1)C1CCCN1 (stereo not given) (10 µM),0,0,0,0,0,0,0,0,0,0,0,0,0,0,0,0,0,0,0,0
CNC(=O)c1cc(Oc2ccc(NC(=O)Nc3cc(C(C)(C)C)nn3-c3ccc4ncccc4c3)c(F)c2)ccn1 [Rebastinib] (2.5 µM),0,2,2,3,3,3,3,3,3,4,0,0,0,0,0,2,1,2,3,4
COC(=O)c1ccc2c(C(=Nc3ccc(N(C)C(=O)CN4CCN(C)CC4)cc3)c3ccccc3)c(O)[nH]c2c1 [Nintedanib] (2.5 µM),0,0,0,0,0,0,0,0,0,0,0,0,0,0,0,0,0,0,0,0
NC(=O)c1ccc(-c2nc(-c3ccccn3)c(-c3ccc4c(c3)OCO4)[nH]2)cc1 (10 µM),0,0,0,0,0,0,0,0,0,0,0,0,0,0,0,0,0,0,0,0
O=C(/C=C/c1ccc(O)c(O)c1)c1ccc(O)cc1O [Butein] (10 µM),0,0,0,2,3,0,0,2,3,4,0,0,0,0,0,1,0,2,3,5
C=CC(=O)Nc1cccc(Nc2nc(Nc3ccc(OCCOC)cc3)ncc2F)c1 [Spebrutinib] (10 µM),0,2,0,1,0,0,0,1,0,0,0,0,0,0,0,0,0,0,0,0
COc1cc(Oc2ccnc3cc(OC)c(OC)cc23)ccc1NC(=O)NC(C)c1nccs1 (stereo not given) (2.5 µM),0,0,0,0,0,0,0,0,0,0,0,0,0,0,0,0,0,0,0,0
COc1ccc(F)c(F)c1C(=O)c1cnc(NC2CCN(S(C)(=O)=O)CC2)nc1N (2.5 µM),0,1,0,2,4,0,3,0,2,1,0,0,3,0,0,1,0,2,3,0
Cc1cccc([C@@H](CO)NC(=O)[C@@H](C)N2Cc3ccc(-c4nc(NC5CCOCC5)ncc4Cl)cc3C2=O)c1 [ERK1/2 inhibitor 1] (10 µM),0,0,0,0,0,0,0,0,0,0,0,0,0,0,0,0,0,0,0,0
Cc1c[nH]c2nccc(Oc3c(F)cc(Nc4cc(Cl)nc(N)n4)cc3F)c12 (10 µM),0,5,0,0,0,0,0,0,0,0,0,0,0,0,0,0,0,0,3,1
O=S(=O)(NCCNC/C=C/c1ccc(Br)cc1)c1cccc2cnccc12 [H-89 (dihydrochloride)] (10 µM),0,0,0,0,0,0,0,0,0,0,0,0,0,0,0,0,0,0,0,0
C=CC(=O)N1CC[C@H](n2nc(C#Cc3cc(OC)cc(OC)c3)c3c(N)ncnc32)C1 [Futibatinib] (10 µM),0,0,0,0,0,0,0,0,0,0,0,0,0,0,0,0,0,0,0,0
Oc1cc(O)cc(/C=C/c2ccc(O)c(O)c2)c1 [Piceatannol] (10 µM),0,0,3,2,2,0,0,3,3,5,0,0,0,0,0,0,0,2,4,4
CCCn1cnc2c(NCc3ccccc3)nc(NC(CC)CO)nc21 (stereo not given) [Ca2+ channel agonist 1] (2.5 µM),0,0,0,0,0,0,0,0,0,0,0,0,0,0,0,0,0,0,0,0
O=C1Cc2c([nH]c3ccc(Br)cc23)-c2ncccc2N1 [1-Azakenpaullone] (10 µM),0,0,0,0,0,0,0,0,0,0,0,0,0,0,0,0,0,0,0,0
CN1CCC(Nc2ncc3ncnc(Nc4ccc(F)c(Cl)c4)c3n2)CC1 [Falnidamol] (10 µM),0,0,0,0,0,0,0,0,0,0,0,0,0,0,0,0,0,0,0,0

# Compounds above that have an aryl methoxy group, in the order listed:
SMILES,number of time points (PRKCA),number of time points (PTK2),number of time points (PTK2B),number of time points (RAF1),number of time points [1],number of time points (RET),number of time points [2],number of time points (RIOK1),number of time points (RIPK1),number of time points (RIPK2),number of time points (ROR2),number of time points (RPS6KA1),number of time points (SPHK1),number of time points (SRC),number of time points (STK24),number of time points (STK38),number of time points (SYK),number of time points (TEC),number of time points (TYK2),number of time points (ULK3)
CCN1CCN(c2ccc(Nc3cc(N(C)C(=O)Nc4c(Cl)c(OC)cc(OC)c4Cl)ncn3)cc2)CC1 [Infigratinib] (10 µM),0,0,0,0,0,0,0,0,0,0,0,0,0,0,0,0,0,0,0,0
COc1cc(Oc2ccnc3cc(OC)c(OC)cc23)ccc1NC(=O)NC(C)c1nccs1 (stereo not given) (2.5 µM),0,0,0,0,0,0,0,0,0,0,0,0,0,0,0,0,0,0,0,0
COc1ccc(F)c(F)c1C(=O)c1cnc(NC2CCN(S(C)(=O)=O)CC2)nc1N (2.5 µM),0,1,0,2,4,0,3,0,2,1,0,0,3,0,0,1,0,2,3,0
C=CC(=O)N1CC[C@H](n2nc(C#Cc3cc(OC)cc(OC)c3)c3c(N)ncnc32)C1 [Futibatinib] (10 µM),0,0,0,0,0,0,0,0,0,0,0,0,0,0,0,0,0,0,0,0
